Results: PubChem BioAssay AID1671190 (National Center for Advancing Translational Sciences (NCATS), 2021)
Several values for one entry are separate records, joined by “and”; a condition that tells them apart may be missing. Equal entries are not always repeated. The campaign covered roughly 580,000 compounds. About 6,100 (1.1%) were called active. Inconclusive means that the source gave no clear call. Such entries were picked first, then a sample of the others. Calls follow the shape of the dose curve; as a rule, active = well fitted inhibition curve with a large enough effect; inconclusive = small, poorly fitted or top-dose-only effect, or another doubt; inactive = no such curve, though single readings can be large or run the other way. A potency beside an inconclusive call is a rough fit, not a confirmed value. Some compounds were tested as several samples or in several runs, with calls that do not always agree.

Amino acid sequences for entries named in this document (tags omitted).
UniProt P18054, whole entry, looked up: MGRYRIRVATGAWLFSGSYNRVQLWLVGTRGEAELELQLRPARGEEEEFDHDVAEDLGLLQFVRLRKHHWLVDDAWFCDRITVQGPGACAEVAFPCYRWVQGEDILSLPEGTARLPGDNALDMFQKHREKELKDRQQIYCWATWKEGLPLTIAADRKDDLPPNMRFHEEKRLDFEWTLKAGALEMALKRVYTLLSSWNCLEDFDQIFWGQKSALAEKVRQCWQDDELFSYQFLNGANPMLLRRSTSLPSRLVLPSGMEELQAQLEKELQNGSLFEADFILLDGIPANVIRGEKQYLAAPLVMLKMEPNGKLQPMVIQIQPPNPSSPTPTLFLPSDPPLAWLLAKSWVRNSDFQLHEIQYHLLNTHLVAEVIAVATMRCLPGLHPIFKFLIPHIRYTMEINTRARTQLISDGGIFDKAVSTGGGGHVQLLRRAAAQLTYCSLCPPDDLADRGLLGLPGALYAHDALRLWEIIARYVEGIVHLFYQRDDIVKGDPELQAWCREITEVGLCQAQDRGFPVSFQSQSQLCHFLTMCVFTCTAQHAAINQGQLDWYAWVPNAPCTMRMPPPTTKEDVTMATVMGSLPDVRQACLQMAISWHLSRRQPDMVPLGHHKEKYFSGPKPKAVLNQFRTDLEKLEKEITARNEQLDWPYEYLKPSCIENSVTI

Target: Polyunsaturated fatty acid lipoxygenase ALOX12 (Homo sapiens) (UniProt P18054)
Experiment: Primary qHTS assay for inhibitors of human arachidonate 12S-lipoxygenase (ALOX12): Round 2
Details: purified 12hLO, xylenol orange hydroperoxide absorbance; activity change, negative = inhibition: at 108 µM (top of the series) unless noted
In short: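 Purified human 12hLO (150 nM final) in 25 mM Hepes, 0.01% Triton X-100, pH 7.0 was preincubated 15 min at room temperature with compound. Then 40 uM arachidonic acid was added, 30 min. Hydroperoxide was read by Fe-XO absorbance ratio 573/405 nm.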
% is scaled to controls: 0 for no effect and ±100 for the full control effect; potency is read from the fitted curve at half-maximal effect.

| SMILES | Potency | activity change, negative = inhibition |
| --- | --- | --- |
| COC(CN1C(=O)C(O)=C(C(C)=O)C1c1ccccn1)OC (stereo not drawn) | inconclusive: 44.7 µM [inhibitor, partial curve, poor fit] | – |
| CCn1c(SCC(=O)c2ccc(O)c(O)c2)nnc1-c1ccc(C)cc1 | inconclusive: 12.6 µM [inhibitor, partial curve, poor fit] | – |
| CC(C)(C)NC(=O)Nc1nnc(SCC(=O)NC2CCCCC2)s1 | inconclusive: 89.1 µM [inhibitor, single point] | – |
| CCc1c(C)sc(NC(=O)c2ccc(Cl)cc2Cl)c1C#N | inconclusive: 50.1 µM [inhibitor, partial curve, poor fit] | – |
| O=C(NCC1CCN(C2CCCC2)C1)Nc1ccccc1 (stereo not drawn) | inconclusive: 50.1 µM [inhibitor, partial curve, poor fit] | – |
| O=C(/C=C/c1ccc[nH]1)c1ccccc1 | inconclusive: 141 µM [inhibitor, partial curve, poor fit] | – |
| Cc1ccc(S[C@@H](CCN2CC[C@H](C)CCC2=O)c2ccccc2)cc1 | inconclusive: 50.1 µM [inhibitor, partial curve, poor fit] | – |
| Cc1cccc(OCC(=O)Nc2ccc3nc(Nc4cccc(C(F)(F)F)c4)cc(C)c3c2)c1 | inactive | – |
| CCOC(=O)c1cnc2ccc(C)cc2c1OCc1cc(F)cc(F)c1 | – | inconclusive: -31% [inhibitor] |
| NNC(=S)Nc1c(Br)cc(F)cc1Br | inactive | – |
| S=c1[nH]nc(COc2cccc(Cl)c2)n1Cc1ccccc1 | inactive | – |
| Cc1cccc(-n2c(Cc3ccccc3)n[nH]c2=S)c1 | inconclusive: 70.8 µM [inhibitor, partial curve, poor fit] | – |
| CCOCCC(=O)Nc1ncc(S(=O)(=O)c2ccc([N+](=O)[O-])cc2)s1 | inactive | – |
| CC(C)C(C)(C#N)NC(=O)CNc1cccc(-c2nnnn2C)c1 (stereo not drawn) | inconclusive: 50.1 µM [inhibitor, single point] | – |
| CC(=O)C1(O)CCC2C3CC(C)C4=CC(=O)C=CC4(C)C3(F)C(O)CC21C (stereo not drawn) | inactive | – |
| COCCCNC(=O)c1c(N)n(-c2ccc3c(c2)OCO3)c2nc3ccccc3nc12 | inconclusive: 28.2 µM [inhibitor, single point] | – |
| CC(C)(C)c1nc(SCC(=O)c2ccccc2)c2ccccc2n1 | inconclusive: 112 µM [inhibitor, partial curve, poor fit] | – |
| COc1ccc2c(Nc3cc(OC)c(OC)c(OC)c3)c(C#N)cnc2c1 | inconclusive: 100 µM [inhibitor, single point] | – |
| O=C(CCc1ccccc1)Nc1nccs1 | inconclusive: 31.6 µM [inhibitor, single point] | – |
| CSc1cccc(NC(=O)c2cccc(C)c2)c1 | inconclusive: 112 µM [inhibitor, single point] | – |
| CCC(C)NC(=O)N1CCc2ccc(S(=O)(=O)Nc3nn[nH]n3)cc2C1 (stereo not drawn) | inconclusive: 8.91 µM [inhibitor, partial curve] | – |
| O=C1NC(=O)/C(=C\c2ccc(Cl)nc2)S1 | inactive | – |

A draw from above in order of molar mass, rising:

| SMILES | Potency | activity change, negative = inhibition |
| --- | --- | --- |
| S=c1[nH]nc(COc2cccc(Cl)c2)n1Cc1ccccc1 | inactive | – |
| CC(C)(C)c1nc(SCC(=O)c2ccccc2)c2ccccc2n1 | inconclusive: 112 µM [inhibitor, partial curve, poor fit] | – |
| NNC(=S)Nc1c(Br)cc(F)cc1Br | inactive | – |

Remaining list, next part.

| SMILES | Potency | activity change, negative = inhibition |
| --- | --- | --- |
| C[C@@H]1O[C@H](C2CCCC2)Cc2[nH]c(=S)[nH]c(=O)c21 | inconclusive: 28.2 µM [inhibitor, single point] | – |
| Cc1ccc(-c2nc3c(c(=O)[nH]c(=O)n3Cc3ccccc3)n2Cc2ccccc2)o1 | inconclusive: 14.1 µM [inhibitor, full curve] | – |
| CCOc1cc(C#N)c(NC(=O)c2cccnc2)cc1OCC | inactive | – |
| O=C(CCCN1C(=O)c2ccccc2C1=O)N1CCC(c2ccccc2)C1 (stereo not drawn) | inconclusive: 70.8 µM [inhibitor, single point] | – |
| CCc1ccc(C(=O)N2CCC(c3n[nH]c(=O)n3Cc3ccc(C)cc3)CC2)cc1 | inconclusive: 56.2 µM [inhibitor, partial curve, poor fit] | – |
| CCn1c(SCC(=O)NC2=NCCS2)nnc1C(C)NC(=O)c1ccccc1Br (stereo not drawn) | inconclusive: 31.6 µM [inhibitor, partial curve, poor fit] | – |
| CCCN(CCC)CC(C)(C)NS(=O)(=O)c1ccc(Cl)cc1 | inconclusive: 15.8 µM [inhibitor, partial curve] | – |
| Cc1ccc(S(=O)(=O)N2CCN(CCNC(=O)c3ccccc3)CC2)cc1 | inconclusive: 50.1 µM [inhibitor, single point] | – |
| O=C(N/N=C/c1ccccc1Cl)c1nc2ccc([N+](=O)[O-])cc2c(=O)[nH]1 | inactive | – |
| O=C1CC(Nc2ccc(N3CCOCC3)cc2)C(=O)N1C1CCCCC1 (stereo not drawn) | inconclusive: 1.26 µM [inhibitor, full curve, poor fit] | – |
| CCCOC(=O)C(N)c1ccccc1 (stereo not drawn) | inconclusive: 35.5 µM [inhibitor, partial curve, poor fit] | – |
| Cc1cc(C)c(C(=O)COC(=O)c2cccc(C)c2C)cc1C | inactive | – |
| Cc1cc(NC(=O)CSc2nc(N)c(NC(=O)c3ccccc3)c(=O)[nH]2)no1 | inactive | – |
| O=C(c1coc(=O)c(Br)c1)N1CCCc2ccccc21 | active: 7.08 µM | – |
| COC(=O)C1=CNC=C(C(=O)OC)C1c1cccc(Cl)c1 | inconclusive: 39.8 µM [inhibitor, partial curve, poor fit] | – |
| Cc1ccccc1NC(=O)Nc1ccc2nc(N3CCOCC3)cc(C)c2c1 | inconclusive: 25.1 µM [inhibitor, partial curve, poor fit] | – |
| Cc1ccc(N(Cc2ccco2)C(=O)Cn2cnc3ccc(F)cc3c2=O)cc1 | inconclusive: 56.2 µM [inhibitor, partial curve, poor fit] | – |
| COc1cc(C(=O)Nc2nc(C)c(Cc3ccc4c(c3)OCO4)s2)cc(OC)c1OC | inconclusive: 50.1 µM [inhibitor, partial curve, poor fit] | – |
| Cc1nc2ccccc2cc1C(=O)O | inactive and active: 7.94 µM | – |
| Cc1ccccc1OCc1n(CC(=O)OC2CC(C)CCC2C(C)C)c2ccccc2[n+]1C (stereo not drawn) | inconclusive: 14.1 µM [inhibitor, partial curve, poor fit] | – |
| COc1cc2nc(Nc3ccc(C)c(Cl)c3)nc(N)c2cc1OC | active: 20 µM | – |
